The list shows a part of the results.
Columns and labels:
Assay in all cases: glycan array binding signal (z-score within array); higher = stronger binding
Conditions in all cases: glycan notation: IUPAC condensed, linker removed
[1] = molecular target: Gal(b1-2)Gal
Procedure, shortened: (§1)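 Negative Z-scores can be read as non-binding. The Z-score is calculated within each array and then averaged across arrays of one protein sequence at different concentrations or buffers and across linkers. Arrays, 3228 in all, were curated from the Consortium for Functional Glycomics database and kept only where the protein sequence was available.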

[2] = molecular target: Gal(b1-3)Gal
Procedure, shortened: as §1

[3] = molecular target: Gal(b1-3)Gal(b1-4)GlcNAc
Procedure, shortened: as §1

[4] = molecular target: Gal(b1-3)GalNAc
Procedure, shortened: as §1

[5] = molecular target: Gal(b1-3)GalNAc(a1-3)[Fuc(a1-2)]Gal(b1-4)Glc
Procedure, shortened: as §1

[6] = molecular target: Gal(b1-3)GalNAc(a1-3)[Fuc(a1-2)]Gal(b1-4)GlcNAc
Procedure, shortened: as §1

[7] = molecular target: Gal(b1-3)GalNAc(b1-3)Gal
Procedure, shortened: as §1

[8] = molecular target: Gal(b1-3)GalNAc(b1-3)Gal(a1-4)Gal(b1-4)Glc
Procedure, shortened: as §1

[9] = molecular target: Gal(b1-3)GalNAc(b1-4)Gal(b1-4)Glc
Procedure, shortened: as §1

[10] = molecular target: Gal(b1-3)GalNAc(b1-4)[Neu5Ac(a2-3)]Gal(b1-4)Glc
Procedure, shortened: as §1

[11] = molecular target: Gal(b1-3)GlcNAc
Procedure, shortened: as §1

[12] = molecular target: Gal(b1-3)GlcNAc(a1-3)Gal(b1-4)GlcNAc
Procedure, shortened: as §1

[13] = molecular target: Gal(b1-3)GlcNAc(a1-6)Gal(b1-4)GlcNAc
Procedure, shortened: as §1

[14] = molecular target: Gal(b1-3)GlcNAc(b1-2)Man
Procedure, shortened: as §1

[15] = molecular target: Gal(b1-3)GlcNAc(b1-2)Man(a1-3)[Gal(b1-3)GlcNAc(b1-2)Man(a1-6)]Man(b1-4)GlcNAc(b1-4)GlcNAc
Procedure, shortened: as §1

[16] = molecular target: Gal(b1-3)GlcNAc(b1-2)Man(a1-3)[Gal(b1-3)GlcNAc(b1-2)Man(a1-6)]Man(b1-4)GlcNAc(b1-4)[Fuc(a1-6)]GlcNAc
Procedure, shortened: as §1

[17] = molecular target: Gal(b1-3)GlcNAc(b1-2)Man(a1-3)[GlcNAc(b1-4)][Gal(b1-3)GlcNAc(b1-2)Man(a1-6)]Man(b1-4)GlcNAc(b1-4)GlcNAc
Procedure, shortened: as §1

[18] = molecular target: Gal(b1-3)GlcNAc(b1-2)[Gal(b1-3)GlcNAc(b1-6)]Man(a1-6)[Gal(b1-3)GlcNAc(b1-2)Man(a1-3)]Man(b1-4)GlcNAc(b1-4)GlcNAc
Procedure, shortened: as §1

[19] = molecular target: Gal(b1-3)GlcNAc(b1-3)Gal(b1-3)GlcNAc
Procedure, shortened: as §1

[20] = molecular target: Gal(b1-3)GlcNAc(b1-3)Gal(b1-4)Glc
Procedure, shortened: as §1

[21] = molecular target: Gal(b1-3)GlcNAc(b1-3)Gal(b1-4)GlcNAc
Procedure, shortened: as §1

[22] = molecular target: Gal(b1-3)GlcNAc(b1-3)Gal(b1-4)GlcNAc(b1-2)Man(a1-3)[Gal(b1-3)GlcNAc(b1-3)Gal(b1-4)GlcNAc(b1-2)Man(a1-6)]Man(b1-4)GlcNAc(b1-4)GlcNAc
Procedure, shortened: as §1

[23] = molecular target: Gal(b1-3)GlcNAc(b1-3)Gal(b1-4)GlcNAc(b1-2)[Gal(b1-3)GlcNAc(b1-3)Gal(b1-4)GlcNAc(b1-6)]Man(a1-6)[Gal(b1-3)GlcNAc(b1-3)Gal(b1-4)GlcNAc(b1-2)Man(a1-3)]Man(b1-4)GlcNAc(b1-4)[Fuc(a1-6)]GlcNAc
Procedure, shortened: as §1

[24] = molecular target: Gal(b1-3)GlcNAc(b1-3)Gal(b1-4)GlcNAc(b1-3)Gal(b1-4)GlcNAc(b1-2)[Gal(b1-3)GlcNAc(b1-3)Gal(b1-4)GlcNAc(b1-3)Gal(b1-4)GlcNAc(b1-6)]Man(a1-6)[Gal(b1-3)GlcNAc(b1-3)Gal(b1-4)GlcNAc(b1-3)Gal(b1-4)GlcNAc(b1-2)Man(a1-3)]Man(b1-4)GlcNAc(b1-4)[Fuc(a1-6)]GlcNAc
Procedure, shortened: as §1

[25] = molecular target: Gal(b1-3)GlcNAc(b1-3)Gal(b1-4)GlcNAc(b1-6)[Gal(b1-3)GlcNAc(b1-3)]Gal(b1-4)Glc
Procedure, shortened: as §1

[26] = molecular target: Gal(b1-3)GlcNAc(b1-3)Gal(b1-4)[Fuc(a1-3)]GlcNAc
Procedure, shortened: as §1

[27] = molecular target: Gal(b1-3)GlcNAc(b1-3)Gal(b1-4)[Fuc(a1-3)]GlcNAc(b1-6)[Gal(b1-3)GlcNAc(b1-3)]Gal(b1-4)Glc
Procedure, shortened: as §1

[28] = molecular target: Gal(b1-3)GlcNAc(b1-3)GalNAc
Procedure, shortened: as §1

[29] = molecular target: Gal(b1-3)GlcNAc(b1-6)Gal(b1-4)GlcNAc
Procedure, shortened: as §1

[30] = molecular target: Gal(b1-3)GlcNAc(b1-6)GalNAc
Procedure, shortened: as §1

[31] = molecular target: Gal(b1-3)GlcNAc(b1-6)[Gal(b1-3)]GalNAc
Procedure, shortened: as §1

[32] = molecular target: Gal(b1-3)GlcNAc6S
Procedure, shortened: as §1

[33] = molecular target: Gal(b1-3)[Fuc(a1-4)]GlcNAc
Procedure, shortened: as §1

[34] = molecular target: Gal(b1-3)[Fuc(a1-4)]GlcNAc(b1-2)Man
Procedure, shortened: as §1

[35] = molecular target: Gal(b1-3)[Fuc(a1-4)]GlcNAc(b1-2)Man(a1-3)[Gal(b1-3)[Fuc(a1-4)]GlcNAc(b1-2)Man(a1-6)]Man(b1-4)GlcNAc(b1-4)[Fuc(a1-6)]GlcNAc
Procedure, shortened: as §1

[36] = molecular target: Gal(b1-3)[Fuc(a1-4)]GlcNAc(b1-3)Gal(b1-3)[Fuc(a1-4)]GlcNAc
Procedure, shortened: as §1

[37] = molecular target: Gal(b1-3)[Fuc(a1-4)]GlcNAc(b1-3)Gal(b1-4)[Fuc(a1-3)]GlcNAc
Procedure, shortened: as §1

B1: B3GalT2 (Rattus norvegicus) (protein)
chain: LMLQWRRRHCCFAKMSWNAKRSLFRTHLMGVLSLVFLFAMFLFFNHHDWLPGRPGFKENPVTYTFRGFRSTKTETNQSSLRNIWKEVVPQTLRPQTATNSNNTELSPQGVTGLENTLSANGSIYNEKGTGHPNSYHFKYIINEPEKCQEKSPFLILLIAAEPGQIEARRAIRQTWGNETLAPGIQITRIFLLGISIKLNGYLQHAIQEESIQYHDIIQQEYLDTYYNLTIKTLMGMNWVATYCPHTPYVMKTDSDMFVNTEYLIHKLLKPDLPPRHNYFTGYLMRGYAPNRNKDSKWYMPPDLYPSERYPVFCSGTGYVFSGDLAEKIFKVSLGIRRLHLEDVYVGICLAKLRVDPVPPPNEFVFNHWRVSYSSCKYSHLITSHQFQPSELIKYWNHLQQNKHNACVNAAKEKAGRYRHRKLH
Question: With B1 as the binder, how does the “glycan array binding signal (z-score)” value [1] read?
Answer: -0.622

Question: And the “glycan array binding signal (z-score)” value [2]?
Answer: -0.434

Question: And the “glycan array binding signal (z-score)” value [3]?
Answer: -0.408

Question: And the “glycan array binding signal (z-score)” value [4]?
Answer: -0.159

Question: And the “glycan array binding signal (z-score)” value [5]?
Answer: -0.035

Question: And the “glycan array binding signal (z-score)” value [6]?
Answer: 1.09

Question: And the “glycan array binding signal (z-score)” value [7]?
Answer: 1.28

Question: And the “glycan array binding signal (z-score)” value [8]?
Answer: 0.105

Question: What about the “glycan array binding signal (z-score)” value [9] of the same binder?
Answer: -0.15

Question: What about the “glycan array binding signal (z-score)” value [10] of the same binder?
Answer: 0.735

Question: And the “glycan array binding signal (z-score)” value [11]?
Answer: 0.728

Question: And the “glycan array binding signal (z-score)” value [12]?
Answer: -1.03

Question: And the “glycan array binding signal (z-score)” value [13]?
Answer: 0.137

Question: What about the “glycan array binding signal (z-score)” value [14] of the same binder?
Answer: -0.913

Question: What about the “glycan array binding signal (z-score)” value [15] of the same binder?
Answer: -0.55

Question: What about the “glycan array binding signal (z-score)” value [16] of the same binder?
Answer: -0.68

Question: And the “glycan array binding signal (z-score)” value [17]?
Answer: -0.55

Question: And the “glycan array binding signal (z-score)” value [18]?
Answer: 0.629

Question: And the “glycan array binding signal (z-score)” value [19]?
Answer: 0.178

Question: What about the “glycan array binding signal (z-score)” value [20] of the same binder?
Answer: -0.697

Question: And the “glycan array binding signal (z-score)” value [21]?
Answer: 0.472

Question: What about the “glycan array binding signal (z-score)” value [22] of the same binder?
Answer: -0.918

Question: What about the “glycan array binding signal (z-score)” value [23] of the same binder?
Answer: 1.09

Question: What about the “glycan array binding signal (z-score)” value [24] of the same binder?
Answer: 2.97

Question: And the “glycan array binding signal (z-score)” value [25]?
Answer: -1.02

Question: And the “glycan array binding signal (z-score)” value [26]?
Answer: 0.109

Question: What about the “glycan array binding signal (z-score)” value [27] of the same binder?
Answer: -0.974

Question: What about the “glycan array binding signal (z-score)” value [28] of the same binder?
Answer: 0.129

Question: What about the “glycan array binding signal (z-score)” value [29] of the same binder?
Answer: -0.423

Question: What about the “glycan array binding signal (z-score)” value [30] of the same binder?
Answer: -1.07

Question: And the “glycan array binding signal (z-score)” value [31]?
Answer: 0.217

Question: What about the “glycan array binding signal (z-score)” value [32] of the same binder?
Answer: 0.164

Question: What about the “glycan array binding signal (z-score)” value [33] of the same binder?
Answer: 0.393

Question: What about the “glycan array binding signal (z-score)” value [34] of the same binder?
Answer: -0.42

Question: What about the “glycan array binding signal (z-score)” value [35] of the same binder?
Answer: -0.692

Question: What about the “glycan array binding signal (z-score)” value [36] of the same binder?
Answer: -0.858

Question: What about the “glycan array binding signal (z-score)” value [37] of the same binder?
Answer: 0.498

Source: the supplement of paper PMC8728848
